Test results as given in PubChem BioAssay AID1117319 (Southern Research Institute, 2015).
The whole screen tested about 260,000 compounds, of which about 1,500 (0.58%) were called active. Inconclusive means that the source gave no clear call. Such entries were picked first, then a sample of the others.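 Rule for the calls: active = inhibition above a set limit at one or more doses, reproduced on every date tested; inconclusive = results disagree between test dates, or hit never tested in dose response; inactive = the rest.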

The chains behind the UniProt entries cited, without tags or fusion partners. Where a name states a change or a piece, a line headed by the entry shows the natural chain unless it says otherwise.
UniProt P69720: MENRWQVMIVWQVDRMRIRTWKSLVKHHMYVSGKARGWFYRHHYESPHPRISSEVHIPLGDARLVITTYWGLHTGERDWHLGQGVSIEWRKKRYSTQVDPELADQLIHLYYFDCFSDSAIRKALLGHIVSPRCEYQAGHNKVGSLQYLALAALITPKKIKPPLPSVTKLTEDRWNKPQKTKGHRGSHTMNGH
UniProt P69721: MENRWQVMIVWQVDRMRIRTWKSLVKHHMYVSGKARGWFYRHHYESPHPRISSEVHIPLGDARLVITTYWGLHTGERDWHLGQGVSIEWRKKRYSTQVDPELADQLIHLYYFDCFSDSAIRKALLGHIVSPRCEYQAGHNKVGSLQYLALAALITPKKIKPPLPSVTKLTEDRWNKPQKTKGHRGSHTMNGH
UniProt P69722: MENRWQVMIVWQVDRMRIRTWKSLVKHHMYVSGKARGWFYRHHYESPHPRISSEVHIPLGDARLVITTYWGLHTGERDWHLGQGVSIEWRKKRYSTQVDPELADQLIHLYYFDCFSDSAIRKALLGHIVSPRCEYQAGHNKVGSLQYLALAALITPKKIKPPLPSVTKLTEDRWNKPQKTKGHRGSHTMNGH
UniProt P69723: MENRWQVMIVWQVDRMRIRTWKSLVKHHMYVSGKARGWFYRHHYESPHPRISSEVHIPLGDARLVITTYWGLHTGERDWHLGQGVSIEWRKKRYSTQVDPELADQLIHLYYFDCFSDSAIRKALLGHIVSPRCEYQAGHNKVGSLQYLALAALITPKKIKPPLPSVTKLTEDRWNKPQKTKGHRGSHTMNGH
UniProt Q9HC16: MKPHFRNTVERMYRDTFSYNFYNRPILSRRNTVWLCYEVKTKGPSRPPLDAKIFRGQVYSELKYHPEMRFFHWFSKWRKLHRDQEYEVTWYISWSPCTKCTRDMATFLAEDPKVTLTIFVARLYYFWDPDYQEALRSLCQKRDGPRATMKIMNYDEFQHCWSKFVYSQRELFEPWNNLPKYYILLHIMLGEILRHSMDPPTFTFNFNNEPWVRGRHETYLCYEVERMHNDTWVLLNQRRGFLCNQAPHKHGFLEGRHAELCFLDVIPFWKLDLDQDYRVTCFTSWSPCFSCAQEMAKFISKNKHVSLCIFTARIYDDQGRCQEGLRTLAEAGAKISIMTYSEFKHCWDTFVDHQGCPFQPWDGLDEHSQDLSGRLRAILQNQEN

What follows are molecules tested against Virion infectivity factor (Human immunodeficiency virus type 1 group M subtype B (isolate BH10)) + Virion infectivity factor (Human immunodeficiency virus type 1 group M subtype B (isolate BRU/LAI)) + Virion infectivity factor (Human immunodeficiency virus type 1 group M subtype B (isolate PCV12)) + Virion infectivity factor (Human immunodeficiency virus type 1 group M subtype B (isolate HXB2)) + DNA dC->dU-editing enzyme APOBEC-3G (Homo sapiens) (UniProt P69720+P69721+P69722+P69723+Q9HC16) (assay: inhibitors of Vif binding to APOBEC3G peptide, primary screen, biochemical, TR-FRET, GST-Vif 1-94, biotin-A3G peptide, dose response retest (AID 1117319;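 note: Vif residues 1-94 fused to GST binding biotinylated APOBEC3G peptide 110-148; 0% = full assay without inhibitor and 100% = GST in place of GST-Vif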)). Conditions: stronger effect = higher value.

SMILES | inhibition
O=C1c2ccccc2C(Nc2ccc(Cl)cn2)N1Cc1ccccc1 (configuration not stated) | inconclusive: 53.8%
Cc1ccc(C(=O)C[n+]2cc(-c3ccc(C)cc3)n3c2CCCCC3)cc1 | inconclusive: 54.8%
COC(=O)c1sccc1NC(=O)COc1ccc(Cl)cc1 | inconclusive: 46%
Nc1[nH]nc2nc3ccccc3cc12 | inconclusive: 45.2%
Nc1ccc(C(=O)O)c(O)c1 | inconclusive: 56.2%
COC(=O)c1ccc(CSc2nc(N3CCOCC3)c3c(c2C#N)CC(C)(C)OC3)o1 | inconclusive: 28.8%
COCCn1c(C)cc(C(=O)COc2cccnc2[N+](=O)[O-])c1C | inconclusive: 35.6%
Cn1c(=O)c(=O)n(C)c2cc(S(=O)(=O)NCCOc3ccccc3)ccc21 | inconclusive: 38.5%
Cc1ccc(NC(=O)CN2C(=O)S/C(=C\c3ccc(-c4cccc(C(=O)O)c4C)o3)C2=O)cc1 | inconclusive: 49.6%
C/C(=N\NC(=O)CSCc1ccc([N+](=O)[O-])cc1)c1ccccc1O | inconclusive: 38.4%
O=C(Nc1ccccc1N1CCOCC1)c1cc(-c2ccncc2)nc2ccccc12 | inconclusive: 37.5%
CN(C)CCCN=Cc1c(-c2ccccc2)[nH]n(-c2nc3ccccc3s2)c1=O | inconclusive: 39.3%
CCOC(=O)c1ccc(NCc2ccncc2)cc1 | inactive: -1.73%
CC(C)Oc1ccc(NC(=O)Oc2ccccc2)cc1 | inconclusive: 57.9%
CC(=O)SC1CC(=O)N(c2ccc(C(C)(C)C)cc2)C1=O (configuration not stated) | inactive: -11.1%
CCCc1cc(=O)oc2c(CN3CCCC3)c(O)ccc12 | inactive: -2.7%
COc1ccc2[nH]cc(CCNS(=O)(=O)c3ccc(NC(C)=O)cc3)c2c1 | inconclusive: 41.6%
COC(=O)C(C)Sc1nnc2n(-c3cccc(C)c3)c(=O)c3c4c(sc3n12)CCCC4 (configuration not stated) | inconclusive: 37.4%
CC1CCCC(NC(=S)Nc2ccc(SC(F)F)cc2)C1C (configuration not stated) | inconclusive: 34.2%

SMILES | inhibition
CN1CC=C2C(C#N)=C(N)C(C#N)(C#N)C(CCc3ccccc3)C2C1 (configuration not stated) | inconclusive: 53%
CC(C)(C)C(=O)NNC(=O)c1cnccn1 | inconclusive: 34.1%
Cc1ccc(S(=O)(=O)Cc2ccc(C(=O)O)o2)cc1 | inconclusive: 37.1%
O=C(NCCc1nc2ccccc2[nH]1)c1cccc(Br)c1 | inconclusive: 33.6%
COc1ccc(S(=O)(=O)NC(CC(C)C)C(=O)NC(C)c2cccs2)cc1 (configuration not stated) | inconclusive: 49.1%
CCCc1cc(C(=O)Cc2ccc(C(=O)OCC)o2)c(O)cc1O | inconclusive: 60.6%
Cc1ccc(-c2ccc(/C=N\NC(=O)c3cc4c(ccc5ccccc54)o3)o2)cc1[N+](=O)[O-] | inconclusive: 37.1%
Cc1ccc(-c2nc(=S)c3c(n2Cc2ccco2)CC(C)(C)OC3)cc1 | inconclusive: 34.1%
COc1cccc(NC(=O)COC(=O)c2cc(=O)c3ccccc3o2)c1 | inconclusive: 50.6%
O=C(N/N=C/c1cc([N+](=O)[O-])ccc1O)c1cccc2cc[nH]c12 | inconclusive: 50.3%
Cc1cc(=O)[nH]c(SCC(=O)Nc2ccc3c(c2)CCC3)c1C#N | inconclusive: 42.5%
CC(C)CCN1CCN(Cc2ccc(Sc3nncn3C)o2)CC1CCO (configuration not stated) | inconclusive: 51.1%
CCCNC(=O)COC(=O)c1cc2c(=O)n3ccccc3nc2s1 | inconclusive: 44.1%
COc1ccc([N+](=O)[O-])cc1NC(=O)C(C)Sc1nc(C)c(C)c(C)n1 (configuration not stated) | inconclusive: 45.9%
Cc1cc(N(CC(=O)O)S(C)(=O)=O)ccc1Br | inconclusive: 16.8%
Cc1ccc(NC(=O)CSc2nnc(-c3ccncc3)n2C)cc1C | inconclusive: 38.6%
CCC(C)n1c(SCC(=O)Nc2ccccc2C(F)(F)F)nc2ccsc2c1=O (configuration not stated) | inconclusive: 40.6%
O=S(=O)(c1cnccc1N1CCN(/N=C/c2ccc(Cl)cc2)CC1)N1CCCCC1 | inconclusive: 36.9%
CCOC(=O)c1oc2ccccc2c1NC(=O)c1ccc(Cl)s1 | inconclusive: -6.35%

Structures from the list above that contain four or more nitrogen atoms (eleven):
SMILES | inhibition
Nc1[nH]nc2nc3ccccc3cc12 | inconclusive: 45.2%
O=C(Nc1ccccc1N1CCOCC1)c1cc(-c2ccncc2)nc2ccccc12 | inconclusive: 37.5%
CN(C)CCCN=Cc1c(-c2ccccc2)[nH]n(-c2nc3ccccc3s2)c1=O | inconclusive: 39.3%
COC(=O)C(C)Sc1nnc2n(-c3cccc(C)c3)c(=O)c3c4c(sc3n12)CCCC4 (configuration not stated) | inconclusive: 37.4%
CN1CC=C2C(C#N)=C(N)C(C#N)(C#N)C(CCc3ccccc3)C2C1 (configuration not stated) | inconclusive: 53%
CC(C)(C)C(=O)NNC(=O)c1cnccn1 | inconclusive: 34.1%
O=C(N/N=C/c1cc([N+](=O)[O-])ccc1O)c1cccc2cc[nH]c12 | inconclusive: 50.3%
CC(C)CCN1CCN(Cc2ccc(Sc3nncn3C)o2)CC1CCO (configuration not stated) | inconclusive: 51.1%
COc1ccc([N+](=O)[O-])cc1NC(=O)C(C)Sc1nc(C)c(C)c(C)n1 (configuration not stated) | inconclusive: 45.9%
Cc1ccc(NC(=O)CSc2nnc(-c3ccncc3)n2C)cc1C | inconclusive: 38.6%
O=S(=O)(c1cnccc1N1CCN(/N=C/c2ccc(Cl)cc2)CC1)N1CCCCC1 | inconclusive: 36.9%

More records.

SMILES | inhibition
COc1ccc(NS(=O)(=O)c2ccc(NC(=S)NC(=O)c3cccc(F)c3)cc2)nn1 | inconclusive: 47.6%
O=C(Nn1cnnc1)c1ccc(Cl)cc1 | inconclusive: 46.3%
O=C1c2ccccc2CCC1C(O)c1ccccn1 (configuration not stated) | inconclusive: 46.3%
Cc1cc(NC(=O)C2(c3ccccc3)CCCC2)no1 | inconclusive: 48.8%
CCN(C1CCCCC1)S(=O)(=O)c1cc(C)ccc1OC | inconclusive: 15%
O=C(COC(=O)c1cncc(Br)c1)NCc1ccco1 | inconclusive: 44.1%
O=C(/C=C/c1ccccc1)NCC1(c2ccccc2)CCOCC1 | inconclusive: 45.2%
CCOC(=S)SCC(=O)N1CCc2cc(OC)c(OC)cc2C1C1C(=O)CC(C)(C)CC1=O (configuration not stated) | inconclusive: 59%
C=CCNc1nc(N)c(C(=C(C#N)C#N)c2ccccc2)s1 | inconclusive: 37.2%
COc1ccc(CN(C(=O)c2cnccn2)C(C(=O)NC(C)(C)C)c2cc(OC)c(OC)c(OC)c2)cc1 (configuration not stated) | inconclusive: 33.4%
COc1ccc(-c2cc(C(=O)NN)[nH]n2)cc1 | inconclusive: 44.2%
CCC(=O)c1ccc(OCC(O)CN2CCCCC2)cc1 (configuration not stated) | inconclusive: 41.3%
CC/C(=C\c1oc2cc3ccccc3cc2[n+]1CC)Nc1ccccc1 | inconclusive: 47.8%
CC(C)n1cnc2c(=S)nc[nH]c21 | inactive: 14.2%
CCOC(=O)c1c(NC(=O)C2=C(C)NC(=S)NC2c2ccc(C)cc2)sc(C)c1C (configuration not stated) | inconclusive: 63.4%
CCC1CCCCN1C(=O)Nc1cccc(NC(=O)N2CCCCC2CC)c1 (configuration not stated) | inconclusive: 58.3%
Cc1ccc2nc(SCC3CCCCO3)[nH]c2c1 (configuration not stated) | inconclusive: 34.9%
CCC1=NN2C(=N)/C(=C\c3ccc(OCCOc4ccc(NC(C)=O)cc4)c(OC)c3)C(=O)N=C2S1 | inactive: -0.34%
O=C1C2CCCN2C(=O)N1CCCCN1CCN(c2ccccc2)CC1 (configuration not stated) | inconclusive: 48.5%
